# Substitutions are numbered along the chain they refer to. Results are given in words; binding and its absence hold for the method and conditions named. Binding seen in cells or lysates may run through a third protein. Some entries that bind do so weakly or less than the wild type. Tags and fused reporters may be left off the sequences shown.
# T1: GST-Rad27 (yeast, UniProt P26793 1-382)
# T1 sequence (looked up): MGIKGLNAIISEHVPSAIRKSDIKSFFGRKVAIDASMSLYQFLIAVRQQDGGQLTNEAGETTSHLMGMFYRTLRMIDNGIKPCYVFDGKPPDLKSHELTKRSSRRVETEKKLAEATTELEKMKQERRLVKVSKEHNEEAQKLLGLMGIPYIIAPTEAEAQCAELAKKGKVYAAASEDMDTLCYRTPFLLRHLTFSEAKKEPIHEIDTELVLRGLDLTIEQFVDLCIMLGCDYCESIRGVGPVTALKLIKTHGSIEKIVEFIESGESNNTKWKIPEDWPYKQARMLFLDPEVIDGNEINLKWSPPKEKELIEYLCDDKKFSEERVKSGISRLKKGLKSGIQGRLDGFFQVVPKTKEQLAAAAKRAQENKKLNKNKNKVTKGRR
# B1: Mus81-6XHis (full-length Mus81 subunit) (protein, UniProt Q04149 1-632)
# chain: MELSSNLKDLYIEWLQELVDGLTPKQEQLKIAYEKAKRNLQNAEGSFYYPTDLKKVKGIGNTIIKRLDTKLRNYCKIHHISPVEAPSLTQTSSTRPPKRTTTALRSIVNSCENDKNEAPEEKGTKKRKTRKYIPKKRSGGYAILLSLLELNAIPRGVSKEQIIEVAGKYSDHCMTPNFSTKEFYGAWSSIAALKKHSLVLEEGRPKRYSLTEEGVELTKSLKTADGISFPKENEEPNEYSVTRNESSEFTANLTDLRGEYGKEEEPCDINNTSFMLDITFQDLSTPQRLQNNVFKNDRLNSQTNISSHKLEEVSDDQTVPDSALKAKSTIKRRRYNGVSYELWCSGDFEVFPIIDHREIKSQSDREFFSRAFERKGMKSEIRQLALGDIIWVAKNKNTGLQCVLNTIVERKRLDDLALSIRDNRFMEQKNRLEKSGCEHKYYLIEETMSGNIGNMNEALKTALWVILVYYKFSMIRTCNSDETVEKIHALHTVISHHYSQKDLIVIFPSDLKSKDDYKKVLLQFRREFERKGGIECCHNLECFQELMGKGDLKTVGELTIHVLMLVKGISLEKAVAIQEIFPTLNKILMAYKTCSSEEEAKLLMFNVLGDAPGAKKITKSLSEKIYDAFGKL
# B2: Mus81-NF120_(Δ21–22) (domain or fragment, UniProt Q04149 1-120)
# chain: MELSSNLKDLYIEWLQELVDTPKQEQLKIAYEKAKRNLQNAEGSFYYPTDLKKVKGIGNTIIKRLDTKLRNYCKIHHISPVEAPSLTQTSSTRPPKRTTTALRSIVNSCENDKNEAPE
# B3: Mus81-NF120_(Δ21–24) (domain or fragment, UniProt Q04149)
# chain: MELSSNLKDLYIEWLQELVDKQEQLKIAYEKAKRNLQNAEGSFYYPTDLKKVKGIGNTIIKRLDTKLRNYCKIHHISPVEAPSLTQTSSTRPPKRTTTALRSIVNSCENDKNEAPE
# B4: Mus81-NF120_(Δ21–26) (domain or fragment, UniProt Q04149)
# chain: MELSSNLKDLYIEWLQELVDEQLKIAYEKAKRNLQNAEGSFYYPTDLKKVKGIGNTIIKRLDTKLRNYCKIHHISPVEAPSLTQTSSTRPPKRTTTALRSIVNSCENDKNEAPE
# B5: Mus81-NF120T23 (domain or fragment, UniProt Q04149 1-120)
# chain: MELSSNLKDLYIEWLQELVDGLAPKQEQLKIAYEKAKRNLQNAEGSFYYPTDLKKVKGIGNTIIKRLDTKLRNYCKIHHISPVEAPSLTQTSSTRPPKRTTTALRSIVNSCENDKNEAPE
# B6: Mus81-NF120END (domain or fragment, UniProt Q04149 1-120)
# chain: B5 chain with A23T, E112A, N113A, D114A
# B7: Mus81-NF120SCE (domain or fragment, UniProt Q04149 1-120)
# chain: B5 chain with A23T, S110A, C111A, E112A
# B8: Mus81-NF474 (domain or fragment, UniProt Q04149 1-474)
# chain: MELSSNLKDLYIEWLQELVDGLTPKQEQLKIAYEKAKRNLQNAEGSFYYPTDLKKVKGIGNTIIKRLDTKLRNYCKIHHISPVEAPSLTQTSSTRPPKRTTTALRSIVNSCENDKNEAPEEKGTKKRKTRKYIPKKRSGGYAILLSLLELNAIPRGVSKEQIIEVAGKYSDHCMTPNFSTKEFYGAWSSIAALKKHSLVLEEGRPKRYSLTEEGVELTKSLKTADGISFPKENEEPNEYSVTRNESSEFTANLTDLRGEYGKEEEPCDINNTSFMLDITFQDLSTPQRLQNNVFKNDRLNSQTNISSHKLEEVSDDQTVPDSALKAKSTIKRRRYNGVSYELWCSGDFEVFPIIDHREIKSQSDREFFSRAFERKGMKSEIRQLALGDIIWVAKNKNTGLQCVLNTIVERKRLDDLALSIRDNRFMEQKNRLEKSGCEHKYYLIEETMSGNIGNMNEALKTALWVILVYYKFSM
# B9: Mus81-NF316 (domain or fragment, UniProt Q04149 1-316)
# chain: MELSSNLKDLYIEWLQELVDGLTPKQEQLKIAYEKAKRNLQNAEGSFYYPTDLKKVKGIGNTIIKRLDTKLRNYCKIHHISPVEAPSLTQTSSTRPPKRTTTALRSIVNSCENDKNEAPEEKGTKKRKTRKYIPKKRSGGYAILLSLLELNAIPRGVSKEQIIEVAGKYSDHCMTPNFSTKEFYGAWSSIAALKKHSLVLEEGRPKRYSLTEEGVELTKSLKTADGISFPKENEEPNEYSVTRNESSEFTANLTDLRGEYGKEEEPCDINNTSFMLDITFQDLSTPQRLQNNVFKNDRLNSQTNISSHKLEEVSDD
# B10: Mus81-NF158 (domain or fragment, UniProt Q04149 1-158)
# chain: MELSSNLKDLYIEWLQELVDGLTPKQEQLKIAYEKAKRNLQNAEGSFYYPTDLKKVKGIGNTIIKRLDTKLRNYCKIHHISPVEAPSLTQTSSTRPPKRTTTALRSIVNSCENDKNEAPEEKGTKKRKTRKYIPKKRSGGYAILLSLLELNAIPRGVS
# B11: Mus81-NF120 (the N-terminal 120 aa fragment of Mus81) (domain or fragment, UniProt Q04149 1-120)
# chain: B5 chain with A23T
# B12: Mus81-NF21–120 (domain or fragment, UniProt Q04149 21-120)
# chain: GLTPKQEQLKIAYEKAKRNLQNAEGSFYYPTDLKKVKGIGNTIIKRLDTKLRNYCKIHHISPVEAPSLTQTSSTRPPKRTTTALRSIVNSCENDKNEAPE
# B13: Mus81-NF114 (domain or fragment, UniProt Q04149 1-114)
# chain: MELSSNLKDLYIEWLQELVDGLTPKQEQLKIAYEKAKRNLQNAEGSFYYPTDLKKVKGIGNTIIKRLDTKLRNYCKIHHISPVEAPSLTQTSSTRPPKRTTTALRSIVNSCEND
# B14: Mus81-NF100 (domain or fragment, UniProt Q04149 1-100)
# chain: MELSSNLKDLYIEWLQELVDGLTPKQEQLKIAYEKAKRNLQNAEGSFYYPTDLKKVKGIGNTIIKRLDTKLRNYCKIHHISPVEAPSLTQTSSTRPPKRT
# B15: Mus81-NF107 (domain or fragment, UniProt Q04149 1-107)
# chain: MELSSNLKDLYIEWLQELVDGLTPKQEQLKIAYEKAKRNLQNAEGSFYYPTDLKKVKGIGNTIIKRLDTKLRNYCKIHHISPVEAPSLTQTSSTRPPKRTTTALRSI
# B16: Mus81-NF80 (domain or fragment, UniProt Q04149 1-80)
# chain: MELSSNLKDLYIEWLQELVDGLTPKQEQLKIAYEKAKRNLQNAEGSFYYPTDLKKVKGIGNTIIKRLDTKLRNYCKIHHI
# B17: Mus81_(Δ120N) (the mutant Mus81 subunit devoid of the N-terminal 120 aa residues) (domain or fragment, UniProt Q04149 121-632)
# chain: EKGTKKRKTRKYIPKKRSGGYAILLSLLELNAIPRGVSKEQIIEVAGKYSDHCMTPNFSTKEFYGAWSSIAALKKHSLVLEEGRPKRYSLTEEGVELTKSLKTADGISFPKENEEPNEYSVTRNESSEFTANLTDLRGEYGKEEEPCDINNTSFMLDITFQDLSTPQRLQNNVFKNDRLNSQTNISSHKLEEVSDDQTVPDSALKAKSTIKRRRYNGVSYELWCSGDFEVFPIIDHREIKSQSDREFFSRAFERKGMKSEIRQLALGDIIWVAKNKNTGLQCVLNTIVERKRLDDLALSIRDNRFMEQKNRLEKSGCEHKYYLIEETMSGNIGNMNEALKTALWVILVYYKFSMIRTCNSDETVEKIHALHTVISHHYSQKDLIVIFPSDLKSKDDYKKVLLQFRREFERKGGIECCHNLECFQELMGKGDLKTVGELTIHVLMLVKGISLEKAVAIQEIFPTLNKILMAYKTCSSEEEAKLLMFNVLGDAPGAKKITKSLSEKIYDAFGKL
# B18: Mus81-NF41–120 (domain or fragment, UniProt Q04149 41-120)
# chain: QNAEGSFYYPTDLKKVKGIGNTIIKRLDTKLRNYCKIHHISPVEAPSLTQTSSTRPPKRTTTALRSIVNSCENDKNEAPE
# B19: Mus81-NF27–120 (domain or fragment, UniProt Q04149 27-120)
# chain: EQLKIAYEKAKRNLQNAEGSFYYPTDLKKVKGIGNTIIKRLDTKLRNYCKIHHISPVEAPSLTQTSSTRPPKRTTTALRSIVNSCENDKNEAPE
# B20: Mus81-NF34–120 (domain or fragment, UniProt Q04149 34-120)
# chain: EKAKRNLQNAEGSFYYPTDLKKVKGIGNTIIKRLDTKLRNYCKIHHISPVEAPSLTQTSSTRPPKRTTTALRSIVNSCENDKNEAPE
# Molecular target: T1, GST-Rad27
# Experiment: pull-down; crude E. coli extracts with GST-Rad27 and Mus81-6XHis derivatives (10 pmol each) mixed with glutathione-agarose beads; 25-mM Tris-HCl/pH 8.0, 100-mM NaCl, 10% glycerol, 0.1% NP-40; 4°C, 2 h; western blotting with anti-6XHis or anti-GST
row,Binder,binding
1,B1,binds
2,B2,binds
3,B3,binds
4,B4,binds weakly
5,B5,binds
6,B6,binds
7,B7,binds
8,B8,binds
9,B9,binds
10,B10,binds
11,B11,binds
12,B12,binds
13,B13,binds
14,B14,binds weakly
15,B15,binds weakly
16,B16,no binding (tested: 10 pmol each)
17,B17,no binding (tested: 10 pmol each)
18,B18,no binding (tested: 10 pmol each)
19,B19,no binding (tested: 10 pmol each)
20,B20,no binding (tested: 10 pmol each)
